These are yes or no findings as the source states them, for the method shown. In cells and extracts the contact can be indirect. Some entries that bind do so weakly or less than the wild type. Sequences can lack the tags named with a protein.
Target: T1, TAP-tagged Bdp1 (S. cerevisiae) (UniProt P46678)
T1 sequence: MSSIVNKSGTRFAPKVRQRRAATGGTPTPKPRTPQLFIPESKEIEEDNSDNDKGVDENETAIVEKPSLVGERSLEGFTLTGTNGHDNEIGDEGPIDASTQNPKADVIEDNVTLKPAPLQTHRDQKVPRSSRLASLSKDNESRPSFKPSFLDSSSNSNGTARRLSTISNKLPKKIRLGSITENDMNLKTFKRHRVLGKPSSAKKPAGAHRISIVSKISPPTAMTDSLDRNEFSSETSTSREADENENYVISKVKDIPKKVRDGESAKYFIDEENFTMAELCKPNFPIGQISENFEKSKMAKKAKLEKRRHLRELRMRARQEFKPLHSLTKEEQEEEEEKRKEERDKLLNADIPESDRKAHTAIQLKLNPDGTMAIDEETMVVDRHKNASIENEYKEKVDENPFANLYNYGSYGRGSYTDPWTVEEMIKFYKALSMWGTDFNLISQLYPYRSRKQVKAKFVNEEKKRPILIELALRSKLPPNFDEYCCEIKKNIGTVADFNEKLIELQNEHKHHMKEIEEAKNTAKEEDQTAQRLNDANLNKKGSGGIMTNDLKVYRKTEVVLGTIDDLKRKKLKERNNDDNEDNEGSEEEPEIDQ
Test: co-IP; Bdp1-TAP purified from yeast cell lysates on IgG sepharose beads, 2 hours at 4°C, three washes with IPP150 buffer, eluted with 0.5 M acetic acid pH 3.5; immunoblot with anti-myc (Hmt1) and anti-Protein A (Bdp1); parallel purification from a strain lacking TAP-tagged proteins as negative control

binding: binds
B1: myc-tagged Hmt1 (enzyme, UniProt P38074 1-348)
chain: MSKTAVKDSATEKTKLSESEQHYFNSYDHYGIHEEMLQDTVRTLSYRNAIIQNKDLFKDKIVLDVGCGTGILSMFAAKHGAKHVIGVDMSSIIEMAKELVELNGFSDKITLLRGKLEDVHLPFPKVDIIISEWMGYFLLYESMMDTVLYARDHYLVEGGLIFPDKCSIHLAGLEDSQYKDEKLNYWQDVYGFDYSPFVPLVLHEPIVDTVERNNVNTTSDKLIEFDLNTVKISDLAFKSNFKLTAKRQDMINGIVTWFDIVFPAPKGKRPVEFSTGPHAPYTHWKQTIFYFPDDLDAETGDTIEGELVCSPNEKNNRDLNIKISYKFESNGIDGNSRSRKNEGSYLMH

Source: paper PMC3568405
